Data on one substance can be found in publication PMC12561918.

Chains of the proteins cited; added tags and fusions are not shown. Residues count along the entry.
UniProt I6Y4D2, residues 25-241: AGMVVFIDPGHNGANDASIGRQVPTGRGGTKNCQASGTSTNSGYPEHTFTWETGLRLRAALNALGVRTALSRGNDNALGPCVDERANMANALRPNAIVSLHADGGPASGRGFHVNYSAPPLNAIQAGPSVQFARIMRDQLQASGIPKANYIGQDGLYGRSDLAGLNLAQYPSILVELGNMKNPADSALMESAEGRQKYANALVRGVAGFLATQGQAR
UniProt Q12905: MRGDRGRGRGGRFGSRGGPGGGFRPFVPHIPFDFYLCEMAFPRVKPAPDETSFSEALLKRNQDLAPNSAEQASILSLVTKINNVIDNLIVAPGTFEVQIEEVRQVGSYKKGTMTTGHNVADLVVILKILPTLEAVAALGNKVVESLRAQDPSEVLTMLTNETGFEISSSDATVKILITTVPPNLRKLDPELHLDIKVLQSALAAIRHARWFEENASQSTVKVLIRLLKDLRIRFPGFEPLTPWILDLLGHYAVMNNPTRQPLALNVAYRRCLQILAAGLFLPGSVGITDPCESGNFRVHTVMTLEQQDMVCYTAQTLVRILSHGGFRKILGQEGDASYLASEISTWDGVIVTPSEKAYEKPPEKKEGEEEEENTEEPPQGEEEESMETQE

These are yes or no findings as the source states them, for the method shown. Binding seen in cells or lysates may run through a third protein. Some entries that bind do so weakly or less than the wild type.

The target in the test is Flag-Rv3717 (Mycobacterium tuberculosis Rv3717) expressed in HEK293T cells (Mycobacterium tuberculosis) (UniProt I6Y4D2). In words: co-IP.

“HA-ILF2 (interleukin enhancer-binding factor 2) (from UniProt Q12905 1-390)”: the binding result was “binds”.
